{"source": "PubChem BioAssay AID588497", "about": "(NMMLSC, 2011)", "note": "In all, about 360,000 compounds went through this assay and about 780 (0.22%) were called active. The shares of active, inactive and inconclusive entries below differ from those in the screen. No stated cut-off is given here; in the data, active means inhibition above about 35% (passing the limit was not always enough); inconclusive means no clear call, values can overlap the other calls."}
{"tested_on": "Botulinum neurotoxin type F light chain protease (Clostridium botulinum)", "experiment": "BoNT/F light chain protease inhibitors, primary screen, biochemical, flow cytometry, MLPCN library (AID 588497); further: plate controls were buffer without enzyme for full effect and enzyme alone for no effect", "conditions": "Multiplex microsphere protease cleavage assay, at 10 µM, active compounds read high"}
{"smiles": "CCCCCOc1ccc(Br)cc1/C(C)=N/NC1=NCCN1", "inhibition": "inconclusive: 0.3%"}
{"smiles": "CN1C[C@H](CO)C=C2c3cccc4[nH]cc(c34)C[C@H]21", "inhibition": "inactive: -44.1%"}
{"smiles": "COc1ccc(NC(=O)CN(C)C(=O)c2sc3ccccc3c2Cl)cc1", "inhibition": "inconclusive: 1.1%"}
{"smiles": "CCOc1ccc(CC(=O)NCCS(=O)(=O)N2CCN(c3ccccc3)CC2)cc1", "inhibition": "inconclusive: 13%"}
{"smiles": "O=C(c1[nH]ncc1-c1ccccc1)C1CO1", "note": "(stereo not drawn)", "inhibition": "inconclusive: -9.5%"}
{"smiles": "COc1cc(OC)c(-c2nc(-c3ccncc3)no2)cc1OC", "inhibition": "inconclusive: -39%"}
{"smiles": "Cc1c(Cl)cccc1NC(=O)CC1Oc2ccccc2NC1=O", "note": "(stereo not drawn)", "inhibition": "inconclusive: 0.6%"}
{"smiles": "Cc1ccccc1COc1ccc(-c2nnn(CC(=O)O)n2)cc1", "inhibition": "inconclusive: -22.7%"}
{"smiles": "COc1ccc(C(=O)CSc2nnc(-c3cccnc3)n2Cc2ccco2)cc1", "inhibition": "inactive: 3.6%"}
{"smiles": "Cc1c(C(=O)NCc2ccc(F)cc2)sc(=O)n1Cc1ccccc1", "inhibition": "inactive: -7.5%"}
{"smiles": "CN(C)c1ccc(/C=N/NC(=O)CN2CCCCC2)cc1Br", "inhibition": "inconclusive: -5.3%"}
{"smiles": "O=C(CCC1CCN(Cc2ccc(Cl)cc2)CC1)NC1CC1", "inhibition": "inconclusive: 26.5%"}
{"smiles": "CC(C)(CNC(=O)c1cc(-c2ccc(Cl)s2)nc2ccccc12)N1CCOCC1", "inhibition": "inactive: 4.1%"}
{"smiles": "Cc1nn(CC(=O)NCc2cccs2)c(=O)c2nn(-c3ccccc3)c(C)c12", "inhibition": "inactive: 2.9%"}
{"smiles": "COc1ccc(N2CCN(C(=O)Cc3ccc(OC)c(OC)c3)CC2)cc1", "inhibition": "inconclusive: -22.2%"}
{"smiles": "Cc1cnc(C(=O)OCC(=O)c2ccc[nH]2)cn1", "inhibition": "inconclusive: 17%"}
{"smiles": "CCOC(=O)c1ccc(OCCOc2ccccc2C)cc1", "inhibition": "inconclusive: 8.2%"}
{"smiles": "CCCC[N+](CC#CCO)(CC#Cc1ccccc1)CCCC", "inhibition": "inconclusive: -52.4%"}
{"smiles": "COc1cc(C(=O)Nc2ccccc2N2CCOCC2)ccc1OCC(=O)N1CCOCC1", "inhibition": "inconclusive: 23.6%"}
{"smiles": "NC(N)=NN=C1c2ccccc2-c2ccccc21", "inhibition": "active: 81.8%"}
{"smiles": "CC1CCC(NC(=O)Cn2c(=O)[nH]c3ccsc3c2=O)CC1", "note": "(stereo not drawn)", "inhibition": "inconclusive: -27.1%"}
{"smiles": "O=C(C1CC1)N1N=C(c2ccc(F)cc2)CC1(O)C(F)(F)F", "note": "(stereo not drawn)", "inhibition": "inconclusive: 10.4%"}
{"smiles": "O=C(CCC(=O)N1CCN(c2ccccn2)CC1)Nc1nnc(C(F)(F)F)s1", "inhibition": "inconclusive: -35%"}
{"smiles": "CCOC(=O)[C@]12CCC=C1N(Cc1ccco1)C(=O)[C@H](CC(=O)N1CCCCC1)C2", "inhibition": "inactive: -13.8%"}
{"smiles": "COC(=O)c1[nH]c2ccc(C)cc2c1NS(=O)(=O)c1ccc(F)cc1", "inhibition": "inconclusive: 46.8%"}
{"smiles": "CC(C)N1CCN(c2ccc(OCC3COC(Cn4cncn4)(c4ccc(Cl)cc4Cl)O3)cc2)CC1", "note": "(stereo not drawn)", "inhibition": "inactive: -0.9%"}
{"smiles": "COc1ccc(N2C3=C(C(=O)CC(C)(C)C3)C(c3cnn(C)c3)C3=C2CC(C)(C)CC3=O)cc1", "inhibition": "inconclusive: -16.1%"}
{"smiles": "S=C(Nc1ccc(Cl)c(Cl)c1)N1CCCC1", "inhibition": "inconclusive: -17.5%"}
{"smiles": "NC(=O)c1cc[n+](Cc2ccc([N+](=O)[O-])cc2)cc1", "inhibition": "inconclusive: 36.1%"}
{"smiles": "Cc1ccc(Cn2c(C)c(C(=O)NCC(C)C)sc2=O)cc1", "inhibition": "inactive: -6.8%"}
{"smiles": "COc1ccc(Cl)cc1C(=O)Nn1cnnc1", "inhibition": "inconclusive: -37.3%"}
{"smiles": "Cc1cccc(NC(=S)NC(=O)CC2CC(C)(C)OC2=O)c1", "note": "(stereo not drawn)", "inhibition": "inactive: 1.9%"}
{"smiles": "S=c1[nH]nc(C2CCCCC2)n1/N=C/c1ccccc1Cl", "inhibition": "inconclusive: -12.4%"}
{"smiles": "CCOC(=O)c1c(C)[nH]c(C(=O)C(C)OC(=O)c2oc3ccccc3c2COC)c1C", "note": "(stereo not drawn)", "inhibition": "inconclusive: -47%"}
{"smiles": "COc1ccc(Br)cc1C(=O)Nc1ccccc1-c1ccccc1", "inhibition": "inactive: -15.2%"}
{"smiles": "Nc1ccccc1SSc1ccccc1N", "inhibition": "inconclusive: -15.4%"}
{"smiles": "O=C(NCCC(=O)N1CCOCCOCCOCCOCC1)OCc1ccccc1", "inhibition": "inconclusive: 24.6%"}
{"smiles": "CN(CC(=O)Nc1ccc(Br)cc1)Cc1ccccc1", "inhibition": "inactive: 9.4%"}
{"smiles": "FCCCOc1ccc(-c2ccnc(-c3ccccc3)n2)cc1", "inhibition": "inconclusive: -20.4%"}
{"smiles": "Cc1cc(=O)[nH]c2c1c(-c1ccccc1)nn2C", "inhibition": "inconclusive: -2.9%"}
{"smiles": "C(=N\\n1cnnc1)/c1ccccn1", "inhibition": "inactive: -2.1%"}
{"smiles": "CCOC(=O)Cc1csc(NC(=O)c2cccc(OC)c2)n1", "inhibition": "inconclusive: -17.2%"}
{"smiles": "O=C1/C(=C\\c2cccc(O)c2)SC(=S)N1Cc1ccccc1", "inhibition": "inconclusive: 17.5%"}
{"smiles": "O=C(Cc1ccccc1)Nc1ccc(NC(=O)c2ccccc2)c(Cl)c1", "inhibition": "inconclusive: 25.2%"}
{"smiles": "CCc1cc2cccc(C)c2nc1SCC(=O)NC1CCCC1", "inhibition": "active: 36.8%"}
{"smiles": "Cc1ccc(O)c(NC(=O)Cc2ccc3ccccc3c2)c1", "inhibition": "inconclusive: 16.2%"}
{"smiles": "C[C@@H]1CN([C@@H](C)CO)C(=O)c2cc(Br)cnc2O[C@@H]1CN(C)S(=O)(=O)c1ccc(F)cc1", "inhibition": "inactive: -1.4%"}
{"smiles": "COc1ccc(/C=N/NC(=O)c2ccn[nH]2)cc1Cn1cc([N+](=O)[O-])cn1", "inhibition": "inconclusive: -18.1%"}
{"smiles": "C#Cc1cccc(NC(=O)Cc2cccs2)c1", "inhibition": "inconclusive: 0.7%"}
{"smiles": "COc1ccccc1CNC(=O)COC(=O)C1CCN(S(=O)(=O)c2c(Cl)cccc2Cl)CC1", "inhibition": "inactive: -6.2%"}
{"smiles": "O=c1c2c3c(sc2nc(NCCOCCO)n1Cc1ccco1)CCCCC3", "inhibition": "inconclusive: 30.7%"}
{"smiles": "COc1ccc2sc(-c3ccc(S(C)(=O)=O)cc3)c(C(=O)NCCCN3CCCC3=O)c2c1", "inhibition": "inactive: 1.1%"}
{"smiles": "Clc1c(-c2ccccc2)nc2ccccn12", "inhibition": "inconclusive: -9.2%"}
{"smiles": "Cc1cccc(C(=O)Oc2cccc3c(O)cccc23)c1", "inhibition": "inconclusive: -10.4%"}
{"smiles": "N#Cc1c(F)cccc1NCc1cccs1", "inhibition": "inconclusive: 35.9%"}
{"smiles": "O=C(Nn1c(O)c(C=C2N=c3ccccc3=N2)sc1=S)c1ccc(Cl)cc1", "inhibition": "active: 57.5%"}
{"smiles": "O=C(c1ccc(Cl)c(S(=O)(=O)N2CCCC2)c1)N1CCCC(C(F)(F)F)C1", "note": "(stereo not drawn)", "inhibition": "inconclusive: 2.5%"}
{"smiles": "CC1CCN(c2cc(N3CCOCC3)c(F)cc2[N+](=O)[O-])CC1", "inhibition": "inconclusive: -2.1%"}
{"smiles": "S=C(Nc1cccc2ccccc12)NC1CCCCC1", "inhibition": "inactive: -2.6%"}
{"smiles": "O=C(NC1CC1)c1cccc(Nc2ccc(-c3ccc4c(c3)OCCO4)nn2)c1", "inhibition": "inactive: 3.4%"}
{"smiles": "Cn1c(=O)[nH]c(=O)c2c1nc(SCCO)n2CCCc1ccccc1", "inhibition": "inconclusive: -9.7%"}
{"smiles": "CCN(CC)CCSc1nnc2c3cc(F)ccc3n(Cc3ccccc3)c2n1", "inhibition": "inconclusive: -8.8%"}
{"smiles": "O=C(O)COc1ccc(S(=O)(=O)c2ccc(OCC(=O)O)cc2)cc1", "inhibition": "inconclusive: -21.9%"}
{"smiles": "CCOC(=O)C1CCN(Cc2ccc(O)c(OC)c2)CC1", "inhibition": "inconclusive: -1.8%"}
{"smiles": "CCCOc1ccc(C(=O)NCCN2CCOCC2)cc1", "inhibition": "inconclusive: -22.6%"}
{"smiles": "COc1ccc(CCNC(=O)c2nonc2N)cc1OC", "inhibition": "inactive: 3.6%"}
{"smiles": "Cc1ccc(/C=C(\\C#N)C(=O)Nc2c(C)cccc2C)s1", "inhibition": "inactive: -2.6%"}
{"smiles": "COc1ccc(CCNC(=O)CCCOc2ccc(Cl)cc2)cc1OC", "inhibition": "inconclusive: -6.1%"}
{"smiles": "Cc1cc(NCc2ccccc2)c2ccccc2n1", "inhibition": "inconclusive: 3.7%"}
{"smiles": "COc1ccccc1C(=O)Nc1cccc(C(=O)c2ccccc2)c1", "inhibition": "inconclusive: -42.1%"}
{"smiles": "O=C(c1ccccc1)N1CCN(C2C3CC4CC(C3)CC2C4)CC1", "note": "(stereo not drawn)", "inhibition": "inactive: -6.2%"}
{"smiles": "O=C(O)C1CCN(c2nc(-c3ccccc3)c3cc(Br)ccc3n2)CC1", "inhibition": "inconclusive: -3%"}
{"smiles": "COc1ccc(-c2noc(=O)n2Cc2ccc(C#N)cc2)cc1", "inhibition": "inconclusive: -17%"}
{"smiles": "COc1ccc2oc(C(=O)OCC(=O)N(CC(C)C)c3c(N)n(Cc4ccccc4)c(=O)[nH]c3=O)c(C)c2c1", "inhibition": "inconclusive: -3.1%"}
{"smiles": "Cc1ccc2nc(NC(=O)c3ccc(Br)o3)sc2c1", "inhibition": "inconclusive: 21.2%"}
{"smiles": "CCOC(=O)[C@]1(C#N)[C@@H]2C=CC(C(N)=O)=CN2[C@@H](C(N)=O)[C@@H]1c1ccc(F)cc1", "inhibition": "inconclusive: -88.8%"}
{"smiles": "COC(=O)c1cc(=O)nc(NN=C2c3ccccc3-c3ccccc32)s1", "inhibition": "inactive: -1.4%"}
{"smiles": "COc1ccccc1CNC(=O)COC(=O)c1ncc(Cl)c(Cl)c1Cl", "inhibition": "inconclusive: 7.4%"}
{"smiles": "Cc1cc(C)n(C(=O)/C=C/c2cccs2)n1", "inhibition": "inconclusive: 10.9%"}
{"smiles": "COc1cc2c(cc1OC)[C@@H](NC(=O)CCc1ccccc1)[C@H](OCc1ccccc1)C2", "inhibition": "inactive: 0.8%"}
{"smiles": "Cc1[nH]nc2c1C(CC(C)C)C(C#N)=C(N)O2", "note": "(stereo not drawn)", "inhibition": "inconclusive: 49.5%"}
{"smiles": "CC1CCCN(C(=O)CSc2n[nH]c(-c3cccs3)n2)C1", "note": "(stereo not drawn)", "inhibition": "inconclusive: 8.7%"}
{"smiles": "Cc1cc(C(=O)NCc2cc(F)cc3c2OCOC3)nn1C", "inhibition": "inconclusive: 58.3%"}
{"smiles": "O=C(COC(=O)/C=C/c1ccccc1Cl)NC1CCCCCC1", "inhibition": "inactive: 0.5%"}
{"smiles": "CC(=O)N1CCN(c2ccnc3cc(Cl)ccc23)CC1", "inhibition": "inconclusive: -79.9%"}
{"smiles": "COc1ccc(NC(=O)CSc2nc3ccccc3n2-c2ccccc2)c([N+](=O)[O-])c1", "inhibition": "inactive: -5.2%"}
{"smiles": "Cc1ccc(CCC(=O)Nc2nccs2)o1", "inhibition": "inactive: -1.7%"}
{"smiles": "CCOC(=O)C(=CNc1ccccc1N1CCOCC1)C(=O)OCC", "inhibition": "inconclusive: -32.4%"}
{"smiles": "O=C(c1cc(-c2ccc(Cl)cc2)n(-c2ccc(Cl)cc2)n1)N1CCOCC1", "inhibition": "inactive: 2.1%"}
{"smiles": "CN(C)c1ccc(-c2nnn(CC(=O)NCc3ccc4c(c3)OCO4)n2)cc1", "inhibition": "inactive: -4.7%"}
{"smiles": "CCC1(C)Cc2ccccc2-c2nc(NCCCO)n(C)c(=O)c21", "note": "(stereo not drawn)", "inhibition": "inconclusive: -85.2%"}
{"smiles": "NC(=O)C1CCN(c2c([N+](=O)[O-])cc(C(F)(F)F)cc2[N+](=O)[O-])CC1", "inhibition": "inconclusive: -22.1%"}
{"smiles": "Cc1cccc(CSc2nnc([C@@H]3CCCN3C(=O)OC(C)(C)C)o2)c1", "inhibition": "inconclusive: -82.5%"}
